PubChem BioAssay AID504764, Drosophila RNAi Screening Center | 2011
The screen tested about 22,000 reagents; this is a random part of those with a known target gene and a result. Of all reagents, 403 (1.9%) were called active. 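Unnormalised raw counts per well; ratio z-scores behind the hit calls and whether each hit raises or lowers signal are not deposited.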 The numbers tell different reagents against one gene apart. Not stated in the record: the amount of reagent.

- Purpose: 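Genome-wide screen for regulators of Notch-driven gene expression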 (primary screen)
- Cells: Drosophila Kc167 cells
- Knock-down reagent: long dsRNA against Drosophila genes
- Timing: about 5 days (4 days dsRNA, then 24 h after transfection)
- Treatment: transfection of constitutively active membrane-tethered Notch lacking the extracellular domain, read 24 h later
- Measured: 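Light from a Notch-responsive E(spl)m3 luciferase reporter under active Notch, with control-promoter and no-Notch reporter wells to normalise; raw counts from paired wells a and b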
- Direction: induced reporter light, run 1, well a and induced reporter light, run 1, well b: higher = more light from the Notch target reporter with active Notch; control promoter light, run 1, well a and control promoter light, run 1, well b: higher = more light from the viral control promoter (cell number, transfection, viability); uninduced reporter light, run 1, well a: higher = more light from the Notch target reporter without active Notch
- Hit rule: 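Wells with low control signal or poorly matching duplicates excluded; duplicates averaged; per source plate, z beyond ±2 for induced/control log2 ratio or beyond ±1.8 for induced/uninduced marks a hit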
- Calls: active = modifier hit (raised or lowered Notch signal); inactive = not a hit

Knock-down of ncm (GeneID 35099) came out at: induced reporter light, run 1, well a = 28535; induced reporter light, run 1, well b = 31250; control promoter light, run 1, well a = 31105; control promoter light, run 1, well b = 31220; uninduced reporter light, run 1, well a = 2795; inactive.
CG15553 (GeneID 43677) showed induced reporter light, run 1, well a = 1.06e5; induced reporter light, run 1, well b = 1.36e5; control promoter light, run 1, well a = 1.45e5; control promoter light, run 1, well b = 1.55e5; uninduced reporter light, run 1, well a = 10395; inactive.
chas (GeneID 32748) #1 showed induced reporter light, run 1, well a = 51575; induced reporter light, run 1, well b = 52940; control promoter light, run 1, well a = 67620; control promoter light, run 1, well b = 67040; uninduced reporter light, run 1, well a = 9055; inactive.
chas (GeneID 32748) #2 gave induced reporter light, run 1, well a = 71465; induced reporter light, run 1, well b = 44625; control promoter light, run 1, well a = 65165; control promoter light, run 1, well b = 55035; uninduced reporter light, run 1, well a = 8455; inactive.
For Rpp30 (GeneID 44392) the deposit lists induced reporter light, run 1, well a = 2.13e5; induced reporter light, run 1, well b = 2.24e5; control promoter light, run 1, well a = 2.22e5; control promoter light, run 1, well b = 2.20e5; uninduced reporter light, run 1, well a = 15450; inactive.
Against CG15312 (GeneID 31940), the entry reads induced reporter light, run 1, well a = 1.58e5; induced reporter light, run 1, well b = 1.18e5; control promoter light, run 1, well a = 1.22e5; control promoter light, run 1, well b = 1.17e5; uninduced reporter light, run 1, well a = 11930; inactive.
For CG4957 (GeneID 34374), the entry reads induced reporter light, run 1, well a = 1.30e5; induced reporter light, run 1, well b = 1.30e5; control promoter light, run 1, well a = 93635; control promoter light, run 1, well b = 1.37e5; uninduced reporter light, run 1, well a = 14065; inactive.
Against mRpS30 (GeneID 32530), the values are induced reporter light, run 1, well a = 82375; induced reporter light, run 1, well b = 1.11e5; control promoter light, run 1, well a = 1.07e5; control promoter light, run 1, well b = 1.14e5; uninduced reporter light, run 1, well a = 5740; inactive.
After knock-down of CG13538 (GeneID 37667), the record shows induced reporter light, run 1, well a = 1.89e5; induced reporter light, run 1, well b = 1.81e5; control promoter light, run 1, well a = 1.59e5; control promoter light, run 1, well b = 1.38e5; uninduced reporter light, run 1, well a = 13735; inactive.
After knock-down of CG14455 (GeneID 40480) the results were induced reporter light, run 1, well a = 1.56e5; induced reporter light, run 1, well b = 91130; control promoter light, run 1, well a = 1.14e5; control promoter light, run 1, well b = 91930; uninduced reporter light, run 1, well a = 6690; inactive.
EloA (GeneID 42749) showed induced reporter light, run 1, well a = 80290; induced reporter light, run 1, well b = 95625; control promoter light, run 1, well a = 1.08e5; control promoter light, run 1, well b = 1.02e5; uninduced reporter light, run 1, well a = 10400; inactive.
For CG34008 (GeneID 3885577), the entry reads induced reporter light, run 1, well a = 56435; induced reporter light, run 1, well b = 43030; control promoter light, run 1, well a = 57900; control promoter light, run 1, well b = 52515; uninduced reporter light, run 1, well a = 6915; inactive.

Limited to “induced reporter light, run 1, well a” (2 entries from above):
ncm (GeneID 35099)	28535
CG15553 (GeneID 43677)	1.06e5
